Data on 1 sequence can be found in publication PMC10991328, “A distal enhancer guides the negative selection of toxic glycoalkaloids during tomato domestication”.

In this data set the test system is MYC2-GST + GAME9-HIS. The data set can be described thus: pull-down. The note with it: GAME9 pulled down only in the presence of MYC2; pull-down: 10 mM HEPES pH 7.9, 100 mM KCl, 5 mM MgCl2, 10% glycerol, 1 mM DTT, 0.5% NP-40, 4 C overnight; recombinant protein; protein details: GST (pGEX-4T-1),His (pET28a); label: 5'-biotin; probe letters rebuilt from the primers and the genome.

Consider “ACAGCTACATTATATTTTTGTATATTGCTAAATGACGAAAAAATTTAATCAGATTAGAAAATGAAAAAATTATAATATTTATTTTATCTTAAAATAAATTAATCTTTTTTCTATTTTTAATTAAAAAGATAAAAATATTTAAAATAATAAAATAATAGAGTAAAATATCATTCTAAAATAGTATAAATAAAATATTATTCCGACCCAATTCTTATTAAATTTTCTAGTTATAAAGATTTTTCATATCTATAGCACCTCACAATAATTTAAACGAATTTTGCACACGTTTATTTATGTTGGACAGCTATATTTTCAAAAAATAAAGCTACATTATCTTTTTTTCTATTGTTTCTGAGGACCAAATGATTATTTATTTTATTAAAGAAAATCCAAAAAGATAGATGTATATAGTACAATAAAGCCGAGAAGAAATAATCTTTATCAGATGGAGACAGGGCATATCTAGGAGGTTTATTACCACTAATGGATCAAAATAAATAATTGTCGAAT (double strand) [GE1-3]”, for which the binding result is given as “binds”.
